Data reported in PubChem BioAssay AID602313 (National Center for Advancing Translational Sciences (NCATS), 2012).
Hit rate of the full screen: of about 390,000 compounds, about 760 (0.19%) were called active. Inconclusive results, whose numbers are uncertain, are shown with a selection of clear calls. The call rests on the fitted dose curve; in most records, active means well fitted inhibition curve with a large enough effect; inconclusive means small, poorly fitted or top-dose-only effect; inactive means flat fitted curve, though single readings scatter. Where the call is inconclusive, the potency comes from a doubtful curve fit.

Assay: qHTS for Inhibitors of Vif-A3F Interactions: qHTS; further: nearly all actives have a fitted effect of over 65% in size
Conditions: HeLa A3F-eYFP + Vif (tagged APOBEC3F with the HIV-1 protein that degrades it), YFP fluorescence increase; series mostly up to 46.1 µM
Summary of the method: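 HeLa cells stably expressing A3F-eYFP plus Vif, plated and incubated overnight at 37 deg C, then exposed to compounds overnight at 37 deg C. Blocked degradation read as raised yellow fluorescence (Ex 488/Em 500-530).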
Potency means the concentration at half of the fitted maximal effect.

Row | Structure (SMILES) | Potency
1 | Cc1cc(C(=O)Nc2sccc2C(N)=O)c(C)o1 | inconclusive: 7.94 µM [inhibitor, partial curve, poor fit]
2 | COc1ccc(/C=N/Nc2nc(N3CCCC3)nc(N3CCCC3)n2)cc1 | inconclusive: 35.5 µM [inhibitor, single point]
3 | CN1CCN(C2Cc3ccccc3Sc3ccc(Cl)cc32)CC1 (configuration not stated) | inactive
4 | COCCCNC(=O)c1ccc(C2SCC(=O)N2Cc2ccco2)cc1 (configuration not stated) | inconclusive: 3.16 µM [inhibitor, single point]
5 | CCCCCN1C=CC=C/C1=C\C=C(C#N)C#N | inconclusive: 14.1 µM [inhibitor, single point]
6 | CCCS(=O)(=O)N1CCN(Cc2ccccc2[N+](=O)[O-])CC1 | inconclusive: 2.82 µM [inhibitor, partial curve, poor fit]
7 | CCN1CCN(c2cc(C)c3cc(NC(=O)c4ccc(OC)c(OC)c4)ccc3n2)CC1 | inconclusive: 15.8 µM [inhibitor, single point]
8 | CCc1cc2c(SCc3nc4sc(C(C)=O)c(C)c4c(=O)[nH]3)ncnc2s1 | inconclusive: 35.5 µM [inhibitor, single point]
9 | COc1ccc(C2c3cccn3CCN2S(=O)(=O)c2ccc([N+](=O)[O-])cc2)cc1 (configuration not stated) | inactive
10 | COc1ccc(CNC(=O)C(C)n2c(=O)cc(C)c3c(C)nn(-c4ccccc4)c32)cc1 (configuration not stated) | inactive
11 | CN(C)CCNC(=O)c1ccc2c(c1)N(Cc1c(F)cccc1Cl)C(=O)c1ccccc1S2 | inconclusive: 35.5 µM [inhibitor, single point]
12 | O=[N+]([O-])c1c(Nc2ccccc2)ccc2nonc12 | inactive
13 | CC(C)CNC1CS(=O)(=O)CC1O (configuration not stated) | inactive
14 | Cc1cc(C)c(NC(=O)Cn2c(=O)n(Cc3ccc(C(=O)NCc4ccco4)cc3)c(=O)c3sccc32)c(C)c1 | inconclusive: 35.5 µM [inhibitor, single point]
15 | CC(=O)CSc1nc(CCc2ccccc2)c(C#N)c(=O)[nH]1 | inconclusive: 6.31 µM [inhibitor, partial curve, poor fit]
16 | Oc1ccccc1C(=S)N1CCN(C(=S)c2ccccc2O)CC1 | inactive
17 | O=C(NC(=S)NCC1CCCO1)c1ccc(Cl)cc1 (configuration not stated) | inactive
18 | COC(=O)c1c(C)c2c(C)cc3ccccn3c-2c1C(=O)OC | inactive
19 | CCOC(=O)CC1C(=O)NCCN1c1nc2ccc(C)cn2c(=O)c1/C=C1\SC(=S)N(CC(C)C)C1=O (configuration not stated) | inconclusive: 1.26 µM [inhibitor, full curve, poor fit]
20 | O=C(Cn1nc(C(F)(F)F)c2c1CCCC2)Nc1ccc(Cl)cc1 | inactive
21 | COc1ccc(Br)cc1CNC(=O)CN1C(=O)CSc2ccc(S(=O)(=O)N3CCOCC3)cc21 | inactive
22 | COc1ccc2c(C(=O)CCl)c[nH]c2c1 | inconclusive: 25.1 µM [inhibitor, partial curve, poor fit]
23 | CC(C)(C)NC(=O)CN(Cc1cccs1)C(=O)CN1C(=O)C(=O)c2ccccc21 | inactive

Row | Structure (SMILES) | Potency
24 | c1ccc(C(=NNc2nc3ccccc3s2)c2ccccn2)cc1 | inconclusive: 31.6 µM [inhibitor, single point]
25 | CC(C)c1ccc(C2C3=C(COC3=O)Nc3cc4c(cc32)OCO4)cc1 (configuration not stated) | inconclusive: 11.2 µM [inhibitor, partial curve, poor fit]
26 | N=c1n(CC(=O)c2ccc([N+](=O)[O-])cc2)c2ccccc2n1Cc1ccc(Cl)cc1 | inconclusive: 2.24 µM [inhibitor, partial curve, poor fit]
27 | Oc1[nH]c2ccc(Br)cc2c1N=Nc1ccc(F)cc1 | inconclusive: 35.5 µM [inhibitor, single point]
28 | CN(C)S(=O)(=O)c1ccc(N2CCCC2)c(C(=O)N2CCN(S(=O)(=O)c3ccc(F)c(F)c3)CC2)c1 | inactive
29 | O=c1c(/C=C(\O)c2ccccc2)nc2ccccc2n1-c1ccccc1 | inconclusive: 22.4 µM [inhibitor, single point]
30 | CC(NC1=CC(=O)c2cccnc2C1=O)C(O)c1ccccc1 (configuration not stated) | inconclusive: 4.47 µM [inhibitor, single point]
31 | COc1nccnc1NS(=O)(=O)c1ccc(NC(=S)NC(=O)c2ccccc2F)cc1 | inactive
32 | O=C(Nc1ccc2c(c1)OCO2)C1CCN(Cc2cc3c(cc2O)OCO3)CC1 | inconclusive: 4.47 µM [inhibitor, full curve, poor fit]
33 | COc1ccccc1C(NC(C)=O)c1cc(Cl)c2cccnc2c1O (configuration not stated) | inconclusive: 20 µM [inhibitor, single point]
34 | CC(NC(=O)c1ccc([N+](=O)[O-])o1)C12CC3CC(CC(C3)C1)C2 (configuration not stated) | inconclusive: 6.31 µM [inhibitor, single point]
35 | O=S(=O)(c1ccccc1)N1CCN(S(=O)(=O)c2ccccc2)c2ccccc21 | inactive
36 | CNc1oc(-c2ccc(Cl)cc2)nc1P(=O)(c1ccccc1)c1ccccc1 | inactive
37 | Cc1cc(C)cc(N2C(=O)CC(N3CCOCC3)C2=O)c1 (configuration not stated) | inactive
38 | Cc1ccc(NC(=S)N(CCN2CCCCC2)Cc2ccco2)cc1Cl | inconclusive: 25.1 µM [inhibitor, single point]
39 | Cc1cccc(C(=O)NN/C=C/C(=O)c2ccccc2)c1 | inconclusive: 11.2 µM [inhibitor, partial curve]
40 | C#CC(=O)CCC1CCCN1C(=O)OC(C)(C)C (configuration not stated) | inconclusive: 28.2 µM [inhibitor, single point]
41 | O[C@H]1C[C@H](c2ccc(Cl)cc2)N(Cc2cccs2)C[C@@H]1n1cc(C2CC2)nn1 | inconclusive: 5.62 µM [inhibitor, single point]
42 | CSc1nncc(/C(C)=N\Nc2ccccc2C)n1 | inconclusive: 25.1 µM [inhibitor, single point]
43 | CC(CN1CCCCC1)C(=O)NNC(=O)C12CC3CC(CC(C3)C1)C2 (configuration not stated) | inconclusive: 35.5 µM [inhibitor, single point]
44 | Cc1cc(C)c(NC(=S)NC(NC(=O)c2ccccc2)C(Cl)(Cl)Cl)c(C)c1 (configuration not stated) | inactive
45 | C/C(=N/OC(=O)c1c(-c2c(F)cccc2Cl)noc1C)c1cnccn1 | inconclusive: 5.62 µM [inhibitor, single point]
46 | CCc1ccccc1NS(=O)(=O)c1cccc2nsnc12 | inconclusive: 35.5 µM [inhibitor, single point]

Row | Structure (SMILES) | Potency
47 | CN1CCN(c2nc(-c3ccccc3)ncc2S(C)(=O)=O)CC1 | inconclusive: 6.31 µM [inhibitor, single point]
48 | COC(=O)CN(c1ccc(C)cc1)S(=O)(=O)c1ccc(F)cc1 | inconclusive: 25.1 µM [inhibitor, partial curve, poor fit]
49 | COc1ccc(C/C(C)=N/NC(=O)c2cc(C)oc2C)cc1 | inconclusive: 22.4 µM [inhibitor, partial curve, poor fit]
50 | Cc1cc(-c2n[nH]c(=S)n2/N=C/C(Cl)=C/c2ccccc2)n[nH]1 | inconclusive: 20 µM [inhibitor, single point]
51 | C=CCn1c(-c2cc3cccc(OC)c3o2)n[nH]c1=S | inconclusive: 35.5 µM [inhibitor, single point]
52 | N#CC1(C#N)CC(C=O)=C(N)C1(C#N)CC(=O)c1ccc(F)cc1 (configuration not stated) | inconclusive: 35.5 µM [inhibitor, single point]
53 | CC(/C=N/NC(=O)CSc1nc2ccccc2n1C)=C\c1ccco1 | inactive
54 | CCOC(=O)c1ccc(NC(=O)CC2Nc3cc(C)c(C)cc3NC2=O)cc1 (configuration not stated) | inconclusive: 35.5 µM [inhibitor, partial curve, poor fit]
55 | C=C(C)C1CC=C(C)/C(=N/NC(=O)COc2ccc(Cl)cc2)C1 (configuration not stated) | inconclusive: 3.16 µM [inhibitor, single point]
56 | CCOC1=C/C(=C/c2c(N)n3nc(-c4ccccc4)sc3nc2=O)C=CC1=O | active: 8.91 µM
57 | COc1ccc(C/C(N)=N/OC(=O)COc2ccccc2C)cc1 | inconclusive: 6.31 µM [inhibitor, single point]
58 | CCC(CC)Nc1ccc(C(CC(N)=O)NC(=O)Cc2cccc3ccccc23)cc1[N+](=O)[O-] (configuration not stated) | inconclusive: 35.5 µM [inhibitor, single point]
59 | CCN(CC)c1ccc2cc(-c3nc(-c4ccccc4)no3)c(=O)oc2c1 | inconclusive: 2.51 µM [inhibitor, full curve, poor fit]
60 | O=c1oc(-c2ccccc2)cc(Cl)c1Cl | inconclusive: 22.4 µM [inhibitor, single point]
61 | O=[N+]([O-])c1ccc(N/N=C/c2cccc(O)c2O)c(S(=O)(=O)N2CCOCC2)c1 | inconclusive: 35.5 µM [inhibitor, single point]
62 | COc1ccccc1CN1CC(C(=O)NCc2c(F)ccc(C)c2F)CCC1=O (configuration not stated) | inconclusive: 3.16 µM [inhibitor, single point]
63 | O=[N+]([O-])c1ccc(N/N=C/c2cn(-c3ccccc3)nc2-c2ccccc2)cc1 | inactive
64 | O=C(Nc1cccnc1Cl)c1ccc(=O)oc1 | inactive
65 | CCOCCCn1c(=NC(=O)c2ccco2)c(C(=O)OCC)cc2c(=O)n3cccc(C)c3nc21 | inconclusive: 1.78 µM [inhibitor, partial curve, poor fit]
66 | CSc1ccc(S(=O)(=O)NCC(=O)OCC(=O)NCC2CCCO2)cc1[N+](=O)[O-] (configuration not stated) | inconclusive: 10 µM [inhibitor, partial curve, poor fit]
67 | O=C(O)CC/C(=N/NC(=O)c1cn(-c2ccccc2)nc1-c1ccccc1)C(=O)O | inconclusive: 31.6 µM [inhibitor, single point]

Among those listed so far, 3 have a cyano group:
Row | Structure (SMILES) | Potency
5 | CCCCCN1C=CC=C/C1=C\C=C(C#N)C#N | inconclusive: 14.1 µM [inhibitor, single point]
15 | CC(=O)CSc1nc(CCc2ccccc2)c(C#N)c(=O)[nH]1 | inconclusive: 6.31 µM [inhibitor, partial curve, poor fit]
52 | N#CC1(C#N)CC(C=O)=C(N)C1(C#N)CC(=O)c1ccc(F)cc1 (configuration not stated) | inconclusive: 35.5 µM [inhibitor, single point]
